Some entries share one result that the patent states for a list of compounds.
Biological target: T1, NS3/4A protease (Hepatitis C virus genotype 1a, UniProt P27958)
T1 construct: N-terminal His6-tagged-NS4A(21-32)-GSGS-NS3(3-181); made in house; host or cells: E. coli BL21(DE3) pLysS
Assay: Inhibition of NS3/4A protease activity (HPLC microbore assay)
Format: biochemical, HCV
Settings: 2 nM NS3/4A protease, 30 minutes at 30° C; call rule not given here.

SMILES	inhibiting NS3/4A activity
O=C1N[C@]2(C(=O)NS(=O)(=O)C3CC3)C[C@H]2/C=C\CCCCCCC(=O)N2C[C@H](Oc3cc(-c4cnccn4)nc4c5ccccc5nn34)C[C@@H]12 [Compound 300]	active
C=C[C@@H]1C[C@]1(NC(=O)[C@@H]1C[C@@H](Oc2nc(-c3ccc(OC(C)C)cc3)nc3c2oc2cccnc23)CN1C(=O)[C@@H](Nc1ccc(F)cc1)C(C)(C)C)C(=O)NS(=O)(=O)C1CC1 [Compound 165]	active
C=C[C@@H]1C[C@]1(NC(=O)[C@@H]1C[C@@H](Oc2nc(-c3ccc(OC(C)C)cc3)nc3c2oc2ccccc23)CN1C(=O)[C@@H](Nc1ccc(F)c(F)c1)C(C)(C)C)C(=O)NS(=O)(=O)C1CC1 [Compound 97]	active
C=C[C@@H]1C[C@]1(NC(=O)[C@@H]1C[C@@H](Oc2nc(-c3ccc(OC(C)C)cc3)nc3c2sc2ccccc23)CN1C(=O)[C@@H](Nc1nc(C)cs1)C(C)(C)C)C(=O)NS(=O)(=O)C1CC1 [Compound 128]	active
CC(C)c1csc(N[C@H]2CCCCC/C=C\[C@@H]3C[C@@]3(C(=O)NS(=O)(=O)C3CC3)NC(=O)[C@@H]3C[C@@H](Oc4nc(-c5ccc(C(F)(F)F)cc5)nc5c4oc4ccccc45)CN3C2=O)n1 [Compound 191]	active
Cc1cc(-c2cc(O[C@@H]3C[C@H]4C(=O)N[C@]5(C(=O)NS(=O)(=O)C6CC6)C[C@H]5/C=C\CCCCC[C@H](NC(=O)OC5CCCC5)C(=O)N4C3)n3nc4ccccc4c3n2)nn1C [Compound 279]	active
C=C[C@@H]1C[C@]1(NC(=O)[C@@H]1C[C@@H](Oc2nc(-c3ccc(OC(C)C)cc3)nc3c2oc2ccccc23)CN1C(=O)[C@@H](Nc1nc(C)c(C(=O)OC)s1)C1CCCCC1)C(=O)NS(=O)(=O)C1CC1 [Compound 162]	active
C=C[C@@H]1C[C@]1(NC(=O)[C@@H]1C[C@@H](Oc2nc(-c3ccc(C(F)(F)F)cc3)nc3c2oc2ccccc23)CN1C(=O)[C@@H](Nc1nccc(Cl)n1)C(C)(C)C)C(=O)NS(=O)(=O)C1CC1 [Compound 12]	active
CC(C)(C)OC(=O)N[C@H]1CCCCC/C=C\[C@@H]2C[C@@]2(C(=O)NS(=O)(=O)C2CC2)NC(=O)[C@@H]2C[C@@H](Oc3cc(-c4ccccc4)nc4c5ccccc5nn34)CN2C1=O [Compound 290]	active
C=C[C@@H]1C[C@]1(NC(=O)[C@@H]1C[C@@H](Oc2nc(-c3cnccn3)nc3c2oc2ccccc23)CN1C(=O)[C@@H](Nc1ccc(F)cc1)C(C)(C)C)C(=O)NS(=O)(=O)C1CC1 [Compound 181]	active
C=C[C@@H]1C[C@]1(NC(=O)[C@@H]1C[C@@H](Oc2nc(-c3ccc(C(F)(F)F)cc3)nc3c2oc2ccccc23)CN1C(=O)[C@@H](Nc1cccc(F)c1)C1CCCCC1)C(=O)NS(=O)(=O)C1CC1 [Compound 26]	active
O=C(O)c1csc(N[C@H]2CCCCC/C=C\[C@@H]3C[C@@]3(C(=O)NS(=O)(=O)C3CC3)NC(=O)[C@@H]3C[C@@H](Oc4nc(-c5ccc(C(F)(F)F)cc5)nc5c4oc4ccccc45)CN3C2=O)n1 [Compound 193]	active
CC[C@@H]1C[C@]1(NC(=O)[C@@H]1C[C@@H](Oc2nc(-c3ccc(C(F)(F)F)cc3)nc3c2oc2ccccc23)CN1C(=O)[C@@H](Nc1nc(C)cs1)C(C)(C)C)C(=O)NS(=O)(=O)C1CC1 [Compound 19]	active
C=C[C@@H]1C[C@]1(NC(=O)[C@@H]1C[C@@H](Oc2nc(-c3ccc(OC(C)C)cc3)nc3c2oc2ccccc23)CN1C(=O)[C@@H](Nc1cncnc1)C(C)(C)C)C(=O)NS(=O)(=O)C1CC1 [Compound 132]	active
C=C[C@@H]1C[C@]1(NC(=O)[C@@H]1C[C@@H](Oc2nc(-c3ccc(OC(C)C)cc3)nc3c2oc2ccc(F)cc23)CN1C(=O)[C@@H](Nc1cccc(C(=O)NC)c1)C(C)(C)C)C(=O)NS(=O)(=O)C1CC1 [Compound 171]	active
CC(C)Oc1ccc(-c2nc(O[C@@H]3C[C@H]4C(=O)N[C@]5(C(=O)NS(=O)(=O)C6CC6)C[C@H]5/C=C\CCCCC[C@H](Nc5ccc(Cl)cc5)C(=O)N4C3)c3sc4ccccc4c3n2)cc1 [Compound 219]	active
C=C[C@@H]1C[C@]1(NC(=O)[C@@H]1C[C@@H](Oc2nc(-c3ccc(OC(C)C)cc3)nc3c2sc2ccccc23)CN1C(=O)[C@@H](Nc1cccc(C(F)(F)F)c1)C(C)(C)C)C(=O)NS(=O)(=O)C1CC1 [Compound 124]	active
CCN(CC)C(=O)c1ccc(-c2cc(O[C@@H]3C[C@H]4C(=O)N[C@]5(C(=O)NS(=O)(=O)C6CC6)C[C@H]5/C=C\CCCCC[C@H](NC(=O)OC5CCCC5)C(=O)N4C3)n3nc4ccccc4c3n2)cc1 [Compound 244]	active
C=C[C@@H]1C[C@]1(NC(=O)[C@@H]1C[C@@H](Oc2nc(-c3ccc(C(F)(F)F)cc3)nc3c2oc2ccccc23)CN1C(=O)[C@@H](Nc1nc(C(=O)N(C)C)cs1)C(C)C)C(=O)NS(=O)(=O)C1CC1 [Compound 70]	active
C=C[C@@H]1C[C@]1(NC(=O)[C@@H]1C[C@@H](Oc2nc(-c3ccc(OC(C)C)cc3)nc3c2oc2ccccc23)CN1C(=O)[C@@H](Nc1nc2c(s1)CCCC2)C(C)(C)C)C(=O)NS(=O)(=O)C1CC1 [Compound 142]	active
C=C[C@@H]1C[C@]1(NC(=O)[C@@H]1C[C@@H](Oc2nc(-c3ccc(OC(C)C)cc3)nc3c2oc2ccccc23)CN1C(=O)[C@@H](Nc1nc(C(=O)OC)cs1)C1CCCCC1)C(=O)NS(=O)(=O)C1CC1 [Compound 161]	active
C=C[C@@H]1C[C@]1(NC(=O)[C@@H]1C[C@@H](Oc2nc(-c3ccc(C(F)(F)F)cc3)nc3c2oc2ccccc23)CN1C(=O)[C@@H](Nc1ccccc1)C(C)(C)C)C(=O)NS(=O)(=O)C1CC1 [Compound 52]	active
O=C1N[C@]2(C(=O)NS(=O)(=O)C3CC3)C[C@H]2/C=C\CCCCC[C@H](Nc2nccc(Cl)n2)C(=O)N2C[C@H](Oc3nc(-c4ccc(C(F)(F)F)cc4)nc4c3oc3ccccc34)C[C@@H]12 [Compound 185]	active
COCc1cc(O[C@@H]2C[C@H]3C(=O)N[C@]4(C(=O)NS(=O)(=O)C5CC5)C[C@H]4/C=C\CCCCC[C@H](NC(=O)OC4CCCC4)C(=O)N3C2)n2nc3ccccc3c2n1 [Compound 284]	active
O=C1N[C@]2(C(=O)NS(=O)(=O)C3CC3)C[C@H]2/C=C\CCCCC[C@H](Nc2cncnc2)C(=O)N2C[C@H](Oc3nc(-c4ccc(C(F)(F)F)cc4)nc4c3oc3ccccc34)C[C@@H]12 [Compound 197]	active

From patent US20110178107A1, “HCV PROTEASE INHIBITORS” (TaiGen Biotechnology Co., Ltd., priority 2010, published 2011)
